Publication PMC10645843, “Fungal secondary metabolism is governed by an RNA-binding protein CsdA/RsdA complex” (Nature Communications, 2023)
These are yes or no findings as the source states them, for the method shown. Binding seen in cells or lysates may run through a third protein. Some entries that bind do so weakly or less than the wild type. Tags and fused reporters may be left off the sequences shown.

Molecular target: T1, RsdA-YFP^N-terminal (Pestalotiopsis fici) (UniProt W3WX91)
T1 sequence: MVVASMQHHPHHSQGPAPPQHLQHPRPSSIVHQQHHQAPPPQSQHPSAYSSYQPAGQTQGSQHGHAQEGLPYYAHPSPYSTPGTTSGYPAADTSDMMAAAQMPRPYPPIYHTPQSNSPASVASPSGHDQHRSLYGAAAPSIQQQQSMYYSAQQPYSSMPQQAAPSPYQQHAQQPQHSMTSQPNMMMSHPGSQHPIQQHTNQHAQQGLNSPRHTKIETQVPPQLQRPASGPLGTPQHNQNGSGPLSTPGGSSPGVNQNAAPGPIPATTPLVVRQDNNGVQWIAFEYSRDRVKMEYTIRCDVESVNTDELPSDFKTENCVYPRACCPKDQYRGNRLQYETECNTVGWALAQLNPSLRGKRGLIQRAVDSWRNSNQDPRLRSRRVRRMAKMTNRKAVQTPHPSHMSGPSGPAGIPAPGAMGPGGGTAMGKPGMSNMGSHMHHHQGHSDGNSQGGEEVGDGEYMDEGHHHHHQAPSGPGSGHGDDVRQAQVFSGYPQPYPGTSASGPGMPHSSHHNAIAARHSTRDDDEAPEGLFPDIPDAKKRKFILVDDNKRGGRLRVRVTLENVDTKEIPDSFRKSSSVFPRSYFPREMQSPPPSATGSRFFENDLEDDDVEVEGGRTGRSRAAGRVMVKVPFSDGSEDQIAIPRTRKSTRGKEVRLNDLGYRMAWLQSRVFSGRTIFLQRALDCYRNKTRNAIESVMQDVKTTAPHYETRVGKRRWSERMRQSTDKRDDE
Experiment: split reporter; BiFC in P. fici (strain TYSZL34 with RsdA-NYFP and CsdA-CYFP); mycelia fixed, DAPI stained, fluorescence microscopy; strains with a single construct as negative controls

B1: GST-CsdA (PFICI_10709), recombinant (natural protein, Pestalotiopsis fici, UniProt W3WSJ8 1-634, looked up)
chain: MSTVPPQPPHFDRYVVIHVATTCDEHGVYVTKDSAEVIELGWIELDAKSLEELHRESVLVKPINTPITPLCTSLTTLTWEHVRNAGTFRDAINRFDAFASEHLTNQNLDFVFVTLDAWDLRVQLPREARDKAVVLPPYLQHSRTFDLRTEYQRWQQHHPESLPFGPSMLSNICAALEVEPVQSSAPIKHNLPFHLQALAPASPRRAMEEAITLARVLRGLIRKSQPAHEHPDVLTRPMDARADVRAFLSERSKVLHMSGLPHDTTQSELESWFTQFGGRPIAFWTLRTPEQHKPTGTGFAVFSSHEEAAESLCMNGRALNEKAIEVSPSSSRVLDRAAEILTPFPPSKNRPRPGDWTCPSCGFSNFQRRTACFRCSFPAVGAGGPQNEMSSYGGGGGGSGGYGYGAPPMMPPPHHGGHHHHHGGMGHGGGRMGGSGVVPFRAGDWKCGNEVCGYHNFAKNVCCLRCGASRAGAAVVADSGYPSPMDSGSNYGMGSHSVGGTPGPGPYASAGGPFGGAGGGYGQHFGGPPSTYALPSGIGGGAAPYPSALNTHIGGPAPGSHSAGPFDSRAAEAAFQSAGNGPASAGPSNNFFGSQAENDPFAFLSTGIGGLTVSGDARQNGSGAGGPQSKSPAA
notes: open reading frame amplified from P. fici cDNA; CsdA said to contain 730 amino acids; GST-CsdA printed as 93.6 kDa; Printed as GST-CsdA; vector pGEX-4T (GST-tag); also called PfCsdA; GST-CsdA protein; source: E. coli BL21 (plasmid pYSZL6, pGEX-4T), purified (GST-tag resin)
Which binding does the source give for B1 here?
The binding was “binds”.
